Measured values: PubChem BioAssay AID1259354 (Paczesny and Yang Labs, IUPUI and University of Michigan, 2018)
Out of some 78,000 compounds screened, about 1,800 (2.3%) were called active. Inconclusive results, whose numbers are uncertain, are shown with a selection of clear calls. No stated cut-off is given here; in the data, active means inhibition above about 30%; inconclusive means mostly about 10% to 28%; inactive means weaker than that.

Protein sequences, listed by entry. Tags and fused reporters are not part of them. Lines headed by an entry give the natural chain unless they say otherwise; changes in a name come on top.
UniProt Q01638: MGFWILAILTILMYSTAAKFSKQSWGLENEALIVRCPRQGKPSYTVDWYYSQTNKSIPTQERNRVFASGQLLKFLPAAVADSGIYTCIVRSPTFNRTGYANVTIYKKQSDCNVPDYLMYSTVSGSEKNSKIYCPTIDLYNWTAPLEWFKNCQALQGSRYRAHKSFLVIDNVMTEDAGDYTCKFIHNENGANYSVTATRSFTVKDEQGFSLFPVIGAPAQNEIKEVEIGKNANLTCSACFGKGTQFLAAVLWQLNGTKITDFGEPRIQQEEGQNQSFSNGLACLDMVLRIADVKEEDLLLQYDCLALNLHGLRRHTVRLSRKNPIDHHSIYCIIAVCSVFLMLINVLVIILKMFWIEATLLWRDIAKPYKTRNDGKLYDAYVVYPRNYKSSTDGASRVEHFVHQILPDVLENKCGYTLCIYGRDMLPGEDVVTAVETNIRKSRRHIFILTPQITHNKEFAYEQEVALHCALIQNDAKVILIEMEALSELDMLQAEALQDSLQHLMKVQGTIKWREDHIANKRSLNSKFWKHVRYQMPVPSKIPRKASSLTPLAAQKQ

target: Interleukin-1 receptor-like 1 (Homo sapiens) (UniProt Q01638); assay: blocks human ST2 binding to IL-33, primary screen, biochemical, AlphaLISA (AID 1259354); details: AlphaLISA ST2-Fc/biotin-IL-33 interaction, 1 h; at 17 µM, stronger effect = higher value

Row | Structure (SMILES) | inhibition
1 | CC(=O)c1ccc(NC(=O)N[C@H]2CO[C@H]3[C@@H]2OC[C@H]3OC(=O)Nc2cccc(C(C)=O)c2)cc1 | active: 85%
2 | O=C(CN1Cc2ccccc2OC(c2ccsc2)C1)N1CCCC1c1nccs1 (stereo unspecified) | inconclusive: 12%
3 | CCCCNC(=O)c1c[nH]n2c(=O)c(Cc3ccccc3F)c(C)nc12 | inconclusive: 11%
4 | COc1ccccc1C1CCCN1C(=O)c1cnn2c1CCCC2 (stereo unspecified) | inconclusive: 21%
5 | COc1ccc(C(CC(=O)O)C(=O)O)cc1 (stereo unspecified) | inactive
6 | CC1CC(C)CN(C2CC(=O)N(c3ccc(Br)cc3Br)C2=O)C1 (stereo unspecified) | inactive
7 | Cn1cc(SCC(=O)Nc2nccs2)c2ccccc21 | inconclusive: 12%
8 | C=CCc1cc(OC)ccc1OCCCN1CCCC1 | inconclusive: 19%
9 | O=C(Nc1ccc2n(c1=O)C[C@H]1C[C@@H]2CN(C(=O)c2ccc(-c3ccccc3)cc2)C1)NC1CCCCC1 | inconclusive: 23%
10 | COc1cc(N2Cc3ccccc3C2)ccc1C=O | inconclusive: 25%
11 | COc1ccc(N2CCN(C(=O)c3sc4ncnc(NC[C@H]5C[C@@H]6C=C[C@H]5C6)c4c3C)CC2)cc1 | inconclusive: 18%
12 | CC1(C)Cc2c(nn(-c3ccccc3)c(=O)c2C#N)CO1 | inconclusive: 15%
13 | O=C(Nc1ccc(Br)cn1)c1ccc(Cl)cc1 | inconclusive: 10%
14 | Cc1cc(C)c(/C=C2\C(=O)Nc3ccccc32)[nH]1 | inconclusive: 21%
15 | CC1=C(C(=O)OC2CCCC2)C(c2ccccc2)C2=C(CCCC2=O)N1 (stereo unspecified) | inactive
16 | Cc1cc(Br)cc2c1N(C)C(=O)/C2=C1\SC(=Nc2ccc(F)cc2)NC1=O | active: 33%
17 | COc1cccc(Cl)c1-c1cc(CO)ccn1 | inconclusive: 10%
18 | Cc1ccc(NC(=O)N2Cc3[nH]cnc3C[C@H]2c2nc(-c3ccc(Cl)cc3)no2)cc1 | inconclusive: 18%
19 | Cc1nc2cc(-c3ccccc3)nn2c(C)c1CCC(=O)NCCC1=CCCCC1 | inactive
20 | COc1ccc(CCNC(=O)c2cc(CC(C)c3ccccc3)no2)cc1 (stereo unspecified) | inconclusive: 14%
21 | Cc1cc(C(=O)NCCSc2ncn[nH]2)c(NC(=O)C(C)(C)C)s1 | inactive

3 entries drawn at random from the list so far, as already listed:
Row | Structure (SMILES) | inhibition
2 | O=C(CN1Cc2ccccc2OC(c2ccsc2)C1)N1CCCC1c1nccs1 (stereo unspecified) | inconclusive: 12%
17 | COc1cccc(Cl)c1-c1cc(CO)ccn1 | inconclusive: 10%
11 | COc1ccc(N2CCN(C(=O)c3sc4ncnc(NC[C@H]5C[C@@H]6C=C[C@H]5C6)c4c3C)CC2)cc1 | inconclusive: 18%

(list continues)

Row | Structure (SMILES) | inhibition
22 | C=CCOc1cccc(C(=O)N(C)C2CCCN(Cc3ccccc3F)C2)c1 (stereo unspecified) | inconclusive: 10%
23 | COc1ccccc1-n1cc(-c2ccnc(NCCc3nccs3)n2)cn1 | inactive
24 | O=c1nc(/C=C/c2ccccc2)[nH]c(=O)[nH]1 | inconclusive: 18%
25 | Cc1cc(N2C(=O)CSC23C(=O)Nc2ccccc23)ccc1Cl (stereo unspecified) | inconclusive: 24%
26 | CCOC(=O)N1CCN(C(=O)c2cc(COc3ccc(F)cc3F)on2)CC1 | inconclusive: 11%
27 | Cc1ccc(C(C)NC(=O)CNCc2cc(F)ccc2F)cc1 (stereo unspecified) | inactive
28 | O=C(N[C@@H]1CN(Cc2ccccn2)CCC[C@H]1O)c1ccc(OCc2ccccc2)cc1 | inconclusive: 24%
29 | O=[N+]([O-])c1ccccc1CN1CCN(C/C=C/c2ccccc2)CC1 | inconclusive: 10%
30 | CCC(C)COC(=O)Cn1cnc2sc3c(c2c1=O)CCCC3 (stereo unspecified) | inconclusive: 13%
31 | OCCCNc1nc2ccccc2n1Cc1ccccc1 | inconclusive: 10%
32 | O=C(c1ccccc1)N1N=C(C(F)(F)F)CC1(O)c1cccc([N+](=O)[O-])c1 (stereo unspecified) | inconclusive: 17%
33 | Cc1nc2c(C)cccc2cc1C(=O)N1CC[C@H](CO)[C@@H](O)C1 | inconclusive: 18%
34 | Cc1cccc(OCCOCCOc2ccccc2/C=C2\C(=O)NN(c3ccccc3)C2=O)c1 | inconclusive: 21%
35 | COc1ccc(N2CCN(C3CCCN(C(=O)C=C(C)C)C3)CC2)cc1 (stereo unspecified) | inconclusive: 14%
36 | COc1cc(OC)c(Nc2nc(-c3nnc(-c4ccc(C)cc4)o3)nc3ccccc23)cc1Cl | inconclusive: 10%
37 | COc1cccc2c(Nc3cccc(Cl)c3C)cc(C)nc12 | inconclusive: 20%
38 | CCCC(=O)NCCc1c2n(c3ccc(OC)cc13)CCCc1ccccc1-2 | inconclusive: 13%
39 | COc1ccc(C2NC(=O)NC(C)=C2C(=O)Nc2ccc(F)c(F)c2)cc1OC (stereo unspecified) | inconclusive: 11%
40 | Cc1ccc2nc(N=C(N)NC(=O)Cc3ccc(Cl)cc3)nc(C)c2c1 | active: 30%
41 | COc1cc(OC)c(C2C(C#N)=C(N)Oc3n[nH]c(-c4ccccc4)c32)cc1OC (stereo unspecified) | inconclusive: 11%
42 | COC(=O)Oc1ccc2c(=O)c(Oc3ccc(C)cc3)coc2c1 | active: 30%

Row | Structure (SMILES) | inhibition
43 | Cc1cc2c(cc1Cl)N(C(=O)Nc1ccnc3ccccc13)CC2 | inconclusive: 12%
44 | CCCc1cncnc1N1CCN(Cc2cccn2-c2ncccn2)CC1 | inconclusive: 23%
45 | CC(=O)N(C1=C(N(C)C)C(=O)c2ccccc2C1=O)c1cccc(Cl)c1 | active: 31%
46 | O=C(NCc1cnn2ccccc12)c1ccccc1Cl | inconclusive: 11%
47 | CC1CCCCN1Cc1cc(Cl)c2cccnc2c1O (stereo unspecified) | inconclusive: 14%
48 | O=C(c1ccccc1-c1ncc[nH]1)N1CCCC2(C1)C(=O)Nc1ccccc12 (stereo unspecified) | inactive
49 | Cc1ccccc1Cn1cnc2ccccc2c1=O | inconclusive: 18%
50 | COc1ccc(N(C(=O)Cc2ccc(F)cc2)C2C=CS(=O)(=O)C2)c(OC)c1 (stereo unspecified) | inactive
51 | Cc1[nH]c(=O)[nH]c(=O)c1CC(=O)N1C[C@@H]2C3CCC(CC3)[C@@H]2C1 | inactive
52 | CC12CC[C@H](C(=O)N(CC(O)CN3CCCCC3)C1=O)C2(C)C (stereo partly specified) | inactive
53 | Cc1ccn2c(NC3CCCC3)c(-c3ccccn3)nc2c1 | active: 38%
54 | O=C(CCc1nc2sc3c(c2c(=O)[nH]1)CCCC3)NC1CCCCCC1 | inactive
55 | O=[N+]([O-])c1ccc(-c2cnc(NO)nc2)cc1 | inconclusive: 20%
56 | CCn1cc(CN2CCC(CNC(=O)c3cnccc3C)C2)cn1 (stereo unspecified) | inactive
57 | O=C(NCc1ccco1)c1cc(-c2ccccc2O)on1 | inconclusive: 16%
58 | CC(C)c1ccc(NC(=O)CN(c2cccc(Cl)c2Cl)S(C)(=O)=O)cc1 | inactive
59 | O=C(O)c1cccc(-n2nc3c4nonc4ccc3[n+]2[O-])c1 | inactive
60 | CN1[C@H](C(=O)O)C[C@H](C(=O)N2CCOCC2)[C@@H]1c1ccccc1F | inconclusive: 12%
61 | COCCn1cc(C(=O)NCCC2=CCCCC2)c2c3ccccc3n(C)c2c1=O | inconclusive: 13%
